# Results reported in PubChem BioAssay AID2002 (Broad Institute, 2009).
# Some of the results follow. Results with a measured potency or affinity are listed apart. Where no call is shown, the source marks the result inconclusive.
# Assay: PubChem AID 2002
# Settings: H4 neuroglioma luciferase reporter, luminescence activation; at 12 µM (top of the series) unless noted
row,SMILES,activation
1,N#Cc1c(NC(=O)c2ccccc2)sc2c1CCC2,68.5%
2,Cc1ccc2c(c1)sc1nc(=O)n(-c3cccc(Cl)c3)c(=O)n12,119%
3,CCC(=C/c1sc2ccc3ccccc3c2[n+]1C)/C=C1\Sc2ccc3ccccc3c2N1C,-74.1%
4,c1ccc(OCCSc2nnnn2C2CCCCC2)cc1,47.3%
5,O=[N+]([O-])c1ccc2nc(-c3ccc(Cl)cc3)n(OCc3ccccc3)c2c1,112%
6,COc1ccc(Cn2c(C3CC3)nc3ccc(NC(=O)C4CC4)cc3c2=O)cc1,140%
7,Cc1cc(NC(=O)OC2CCCCC2)ccc1[N+](=O)[O-],121%
8,CCc1ccc2oc(-c3cc(N=Cc4cccc(OC)c4O)ccc3O)nc2c1,-26.7%
9,COc1ccc(/C=C2\CCn3c2nc2ccccc2c3=O)cc1OC,143%
10,COC(=O)CCN1CCc2cc(N=Nc3ccc([N+](=O)[O-])cc3)ccc21,37.1%
11,O=C(CCl)N(c1ccccc1)C1CCS(=O)(=O)C1 (stereo not given),3%
12,N#C/C(=C\c1ccc(N2CCCCC2)o1)C(=O)Nc1cccc(Br)c1,178%
13,Cc1cccc(NC(=O)Nc2ccc3c(c2)OCO3)n1,152%
14,c1ccc(N2CCN(c3nc4cc5c(cc4s3)OCO5)CC2)cc1,178% [at 6 µM]
15,CCOC(=O)c1ccc(-c2ccc(/C=N/NC(=O)c3cncc(Br)c3)o2)cc1,82.9%
16,CCc1cc2c(=O)n3c(nc2s1)-c1[nH]c2ccc(OC)cc2c1CC3,99.6%
17,Nc1c(C(=O)Nc2ccccc2Cl)nnn1-c1ccc2c(c1)OCCO2,103%
18,O=c1c2c3c(sc2nc2n1N=C(c1cccs1)CS2)CCCC3,108%
19,Cc1cc(C)c(NN=c2c(=O)c3ccccc3c2=O)c(C)c1,100%
20,COC(=O)C1C(=O)c2c([nH]c(C(=O)OC3CCCCC3)c2C)CC1C (stereo not given),119%
21,CC(C)(C)c1csc(NC2=NS(=O)(=O)c3ccccc32)n1,133%
22,Cn1c(-c2ccc(F)cc2)cnc1SCC(=O)Nc1ccccc1N1CCOCC1,81.9%
23,O=[N+]([O-])C(/C=C(\Cl)[N+](=O)[O-])=C(N1CCCCC1)N1CCCCC1,49.2% [at 6 µM]
24,C=CCn1c(C)nc2c(sc3nc4c(cc32)COC(C)(C)C4)c1=O,87.9%

row,SMILES,activation
1,COc1ccc(C2CC(c3ccc4ccccc4c3)=NN2C(=O)COC(=O)C2CCC(=O)N2)cc1 (stereo not given),286% [at 6 µM]
2,Cn1c(-c2nnn(-c3ccc(F)cc3)n2)cc2ccccc21,116%
3,CCN1C(=S)SC(=O)C1=C1C=C(C)N(Cc2ccco2)C(C)=C1,83.2%
4,COc1ccc(NC(=O)c2cc3ccccc3o/c2=N\NS(=O)(=O)c2ccc(C)cc2)cc1,61.5%
5,Cc1ccc(CNC(=O)/C=C/c2cccs2)cc1,88.6%
6,COc1ccc(C(=O)Nc2ccccc2C(=O)N/N=C/c2cccc3ccccc23)cc1,55.8%
7,N#C/C(=N\Nc1ccccc1)C(=N)N1CCCCCC1,103%
8,Clc1ccccc1/C=N/Nc1cc(N2CCOCC2)ncn1,150%
9,Nc1c(C(=O)c2ccccc2)oc2ccc(Br)cc12,150%
10,O=C(N=c1nc2ccccn2s1)c1ccccc1,121%
11,N#CC(C#N)=c1ccc2c(c1)NC1(CCCCC1)N=2,58.3% [at 6 µM]
12,O=C1N=C(N2CCOCC2)S/C1=C1\C(=O)N(Cc2ccccc2)c2ccccc21,112%
13,O=C(Nc1ccc(-c2cn3ccccc3n2)cc1)c1ccco1,59.2%
14,CC(C)(C)c1cc(NC(=O)Nc2ccccc2)no1,119%
15,O=C(O)c1ccc(N/N=C/c2ccc(-c3cc(Cl)ccc3Cl)o2)cc1,114%
16,Cc1ccnc(SCc2nc3ccccc3s2)n1,96.3%
17,Oc1[nH]c2ccccc2c1C=Nc1ccc2c(c1)OCO2,135%
18,CN(C)c1ccc(/C=N/n2ncc3ccccc32)cc1,-35.1%
19,Cc1cccc(-c2cc3nc4c(c(N5CCOCC5)n3n2)CCCC4)c1,55.9% [at 3 µM]
20,Cc1ccccc1/C=C/c1nc2ccccc2c(=O)[nH]1,76.5%
21,Cc1cccc(COc2ccc(/C=N/NC(=O)c3nnn(-c4nonc4N)c3COc3ccc(F)cc3)cc2)c1,43.7%
22,c1ccc2c(c1)oc1c(Nc3ccc(CN4CCOCC4)cc3)ncnc12,120% [at 3 µM]
23,CCCCOc1ncnc2c1[nH]c1ccc(OC)cc12,72.1%
24,CCOC(=O)CSc1nc(-c2ccc3c(c2)OCO3)ccc1C#N,115%

# Given bar-delimited: entries from further up.
row | SMILES | activation
15 | O=C(O)c1ccc(N/N=C/c2ccc(-c3cc(Cl)ccc3Cl)o2)cc1 | 114%
16 | Cc1ccnc(SCc2nc3ccccc3s2)n1 | 96.3%

# Continued.

row,SMILES,activation
1,O=C(N/N=C\c1cccc(Cl)c1)c1n[nH]c2c1CCCC2,134%
2,Cc1ccc(N=Cc2c(O)[nH]c3ccccc23)c([N+](=O)[O-])c1,95.7%
3,COc1ccc(-c2cc(C(=O)Nc3cccc(Cl)c3)no2)cc1,154%
4,O=C(NC1CC1)c1cccc(Nc2ccc(-c3ccc4c(c3)OCCO4)nn2)c1,61.6%
5,O=C(Nc1cccc(Cl)c1)c1ccc2c(=O)n3c(nc2c1)CCCCC3,98.3%
6,CC(C)c1ccc(/C=N/NC(=O)c2cccc(Cl)c2)cc1,122%
7,O=C(NC1CCCC1)c1cc(-c2cccs2)on1,67.2%
8,Cc1ccc2cc(CCNC(=O)c3cccs3)c(=O)[nH]c2c1C,93.3%
9,COc1cccc(-c2cn3nc(C)c(C)nc3n2)c1,130% [at 6 µM]
10,O=C(Nc1nc2ccsc2c(=O)s1)c1ccc(F)cc1,128%
11,O=C(NCCC1=CCCCC1)NC12CC3CC(CC(C3)C1)C2,156%
12,Cn1c(C(=O)Nc2ccc3c(c2)OCO3)cc2sccc21,120%
13,CCN1C(=O)/C(=C/N2CCc3ccccc32)SC1=S,152% [at 6 µM]
14,CCOC(=O)c1c(-c2ccccc2)cn2c(C)cc(C)nc12,178%
15,Cc1ccc(Nc2nc3ccccc3[nH]2)nc1,213% [at 6 µM]
16,N#Cc1c(NC(=O)C2CCCO2)sc2c1CCCCC2 (stereo not given),154% [at 6 µM]
17,Nc1c(C(=O)Nc2ccc3c(c2)OCCO3)nnn1Cc1ccc(Br)cc1,131%
18,Cc1cc(C(=O)CSc2nc3ccccc3o2)c(C)n1CC1CCCO1 (stereo not given),11.6%
19,Cn1cccc1/C=C1\CCC/C(=C\c2cccn2C)C1=O,140%
20,COc1c(C)cccc1C(=O)Nc1ccc(N2CCOCC2)c(Cl)c1,195% [at 6 µM]
21,Clc1ccc(-c2nsc(N3CCOCC3)n2)c(Cl)c1,16%
22,Cc1ccc(N=Nc2c(C)[nH]n(C(N)=S)c2=O)cc1C,236%
